In patent US12180252B2, “Peptide derived from PEP27 peptide and uses thereof” (priority 2021, dated 2024):
Like-named read-outs stand apart in the source and are kept apart here. Not every detail of the peptide structures is certain; ends, links or a residue may be inferred. Some results were stated once for a whole list of compounds, not compound by compound. Where a SMILES comes first, the peptide text is derived from it.

Experiments:
E. coli ATCC 25922 [1] = assay: Cytoplasmic membrane depolarization (DiSC3-5); format: cell-based, Escherichia coli; settings: 4×MIC
Experimental: We also used E. coli cells and the membrane potential-sensitive cyanine dye 3,3′-dipropylthiadicarbocyanine iodide (DiSC3-5) to test the ability of PEP27 and PEP27-2 to depolarize Gram-negative bacterial membranes (FIG. 15B to FIG. 15E).
Depolarization of the cytoplasmic membrane by the peptides was measured using the membrane potential-sensitive dye DiSC3-5 (Merck KGaA, n=4 per condition) with intact E. coli cells as previously described. 66 Mid-log-phase E. coli ATCC 25922 cells were washed with 5 mM HEPES buffer containing 20 mM glucose and resuspended to an OD600 of 0.05 in 5 mM HEPES buffer containing 20 mM glucose and 0.1 M KCl. The cell suspension was incubated with 1 μM DiSC3-5 for 1 h. […] Fluorescence was measured at excitation and emission wavelengths of 622 and 670 nm, respectively.
When the bacterial cytoplasmic membrane is disrupted, the membrane potential dissipates E. coli, and DiSC3-5 is released into the culture medium, resulting in a fluorescence increase. After stabilization for 10 min by treatment with DiSC3-5, AMPs were added, and the plasma membrane potential of E. coli was confirmed by monitoring the change in fluorescence intensity for another 30 min.

[2] = test system: E. coli and Staphylococcus aureus cells; assay: Scanning electron microscope analysis of bacterial membrane; format: cell-based, Escherichia coli; settings: at MIC, 37° C., 1 hour
Experimental: In order to confirm whether the synthetic peptides of the present invention prepared by the method of above 1 would damage the bacterial cell membrane, it was investigated through a scanning electron microscope.
As a control, a strain not treated with peptide was used. After incubation, the cells were recovered, treated with 2.5% glutaraldehyde at 4° C. for 18 hours, and washed twice with PBS buffer solution. The fixed cells were dehydrated for 10 minutes using 100% ethanol and diluted ethanol (50%, 70%, 90% and 100%) in sequential order, and then the samples were dried and coated with platinum, followed by observation through a low vacuum scanning electron microscope.

[3] = test system: TNF-α, IL-1β, IL-6, iNOS and COX-2; assay: Pro-inflammatory cytokine gene expression in abscess tissue, qPCR; format: in vivo, mouse; settings: mRNA relative to β-actin
E. coli = assay: Flow cytometry, propidium iodide staining; format: cell-based, Escherichia coli
Experimental: In order to confirm whether the peptide prepared by the method of above 1 acts on the bacterial membrane, PEP27-2 peptide having better antimicrobial activity than the parental peptide was analyzed through flow cytometry.
Thereafter, the supernatant was removed using a centrifuge (10,000 rpm) and stained with propidium iodide (PI) at a concentration of 10 μg/ml at 4° C. for 30 minutes. Then, the unbound propidium iodide (PI) was removed using the centrifuge, and 1 ml of physiological saline (PBS) was added to remove agglomeration of the cells. Thereafter, effects of the peptide on the bacterial membrane were determined using a Bechman flow cytometer.

[4] = test system: Staphylococcus aureus MW2; assay: Hematoxylin and eosin staining of abscess tissue; format: in vivo, mouse; settings: tissue on day 7, treated 2 hours after infection
Description: Among tissues on the abscess portion and infected portion gathered in the above 13, the tissue on day 7 was fixed with 4% buffered formalin. The infection portion or abscess portion fixed with formalin was embedded in paraffin, while staining a fragment of the cross-section with hematoxylin and eosin.

S. aureus ATCC 25923 = assay: Time-kill kinetics; format: cell-based, Staphylococcus aureus
Experimental: (§1) Time-killing kinetics were analyzed for E. coli ATCC 25922 and S. aureus ATCC 25923 in the presence of PEP27-2 at their respective MICs. The bacterial cells were cultured overnight until they reached the exponential growth phase; they were then incubated at 37° C. for an additional 10 min from 0 min to 1 h. The total bacterial population was then stained with QUANTOM total cell staining dye, after which the stained cells were mixed with QUANTOM cell loading buffer and loaded into QUANTOM M50 Slides. The slides were centrifuged using the QUANTOM centrifuge to evenly distribute them throughout the counting chamber and ensure accurate cell counts. Intracellular fluorescence was detected using the QUANTOM Tx microbial cell counter, which captures and counts cells automatically (Logos Biosystems, Gyeonggi-do, South Korea).

E. coli ATCC 25922 [5] = assay: Time-kill kinetics; format: cell-based, Escherichia coli
Experimental: as §1

[6] = Calcein release from LUVs; settings: peptide-to-lipid (P/L) ratio 0.2; PE/PG and PC/CH/SM liposomes; 100% = 0.1% Triton X-100
Experimental: To examine the mechanism of action of PEP27 and PEP27-2, we evaluated the changes in bacterial cell membrane permeability by monitoring the release of calcein, a fluorescent marker, from calcein entrapped LUVs with different lipid bilayer compositions.
Peptide-induced membrane permeabilization was quantified by monitoring calcein release from LUVs (n=3 per condition). Different calcein-entrapped LUVs [PE/PG (7/3) or PC/CH/SM (1/1/1)] were prepared as described above, except that the dry lipid films were resuspended in 1 mL of PBS (pH 7.2) containing 70 mM calcein. Gel filtration chromatography on a Sephadex G-50 column was performed to separate free calcein from that entrapped in LUVs. Thereafter, the LUVs with entrapped calcein were mixed with peptides at various ratios, and the fluorescence of the released calcein was measured with a SpectraMax M3 Multi-Mode Microplate Reader (Molecular Devices, Sunnyvale, CA, USA) at excitation and emission wavelengths of 480 and 520 nm, respectively.

[7] = test system: Staphylococcus aureus MW2-GFP; format: in vivo, mouse; settings: up to 3 days after infection with 1×10^9 CFU
Experimental: For real-time tracking the progress of infection with regard to the peptide that has the most excellent antimicrobial activity among the peptides prepared by the method of above 1, fluorescence (GFP)-labeled Staphylococcus aureus MW2 (Staphylococcus aureus MW2-GFP) was used. Fluorescence images were taken from the beginning of infection to 6 hours, 1 day, 2 days and 3 days by means of an FOBI fluorescence imaging system (Neo Science, Suwon, Korea), followed by analysis thereof using live image software.

[8] = test system: Staphylococcus aureus MW2; format: in vivo, BALB/c mouse; settings: for reduction of the number of bacteria in abscess tissue: 0.2 mg/kg alone, injected 2 hours after infection
Experimental: The efficacy of PEP27-2, which is the peptide having the most excellent antimicrobial activity among the peptides prepared by the method of above 1 was evaluated in vivo using a mouse model.
Specifically, the epidermis on the back side (dorsal side) of 6-7 week old BALB/c mouse was infected with Staphylococcus aureus MW2 having GFP gene inserted therein (S. aureus MW2-GFP, 1×10^9 CFU/10 μl PBS). After 2 hours form infection, PEP27-2 alone (0.2 mg/kg, 50 μl), ceftriaxone alone (0.2 mg/kg, 50 μl) or a combination of the peptide and the antibiotic (0.05 mg/kg PEP27-2+0.1 mg/kg ceftriaxone, 50 μl) was injected. Further, the control mice were injected with the same amount of PBS ([…]) without peptide. On 1st, 2nd, 3rd, 4th, 5th and 7th days after treatment, the shape of abscess was photographed, and surrounding tissues as well as the abscess were gathered. The abscess tissue was homogenized in 500 μl of sterile PBS using a tissue grinder. A serial diluted solution of the homogenate was spread on an agar plate and cultured for 24 hours in order to quantify the Staphylococcus aureus MW2 strain.

plasmid DNA (pRSETB) = assay: Peptide-DNA binding by agarose gel electrophoresis; settings: peptide/DNA ratios 0.25:1 to 4:1, 300 ng plasmid DNA
Experimental: Specifically, 300 ng of plasmid DNA (pRSETB) was reacted with the peptide by a relative ratio (reactions were performed at peptide/DNA ratios of DNA alone, 0.25:1, 0.5:1, 1:1, 1.5:1, 2:1, 3:1, 4:1, respectively) at 37° C. for 10 minutes, followed by conducting electrophoresis on a 1% agarose gel, staining the same with ethidium bromide (EtBr) and monitoring through UV.

[9] = at MIC, after 20 min of treatment

| SMILES | DiSC3-5 fluorescence intensity (membrane depolarization) (E. coli ATCC 25922 [1]) | bacterial cell membrane damage by SEM [2] | expression of inflammatory cytokines (TNF-α, IL-1β, IL-6, iNOS, COX-2) [3] | bacterial membrane destruction (E. coli; E. coli, flow cytometry) | PI-positive E. coli cells (membrane destruction ability) (E. coli; at MIC, 37° C., 1 hour) [%] | number of visible scabs formed on the skin surface and number of bacteria [4] | time of complete killing (S. aureus ATCC 25923; S. aureus ATCC 25923, at MIC) [min] | time within which the strain was killed (QUANTOM total cell staining) (S. aureus ATCC 25923; S. aureus ATCC 25923, at MIC) [min] | decrease in S. aureus cell viability (cell count) (S. aureus ATCC 25923; [9]) | time of complete killing (E. coli ATCC 25922 [5]; E. coli ATCC 25922, at MIC) [min] | time within which the strain was killed (QUANTOM total cell staining) (E. coli ATCC 25922 [5]; E. coli ATCC 25922, at MIC) [min] | decrease in E. coli cell viability (cell count) (E. coli ATCC 25922 [5]; [9]) | calcein leakage [6] [%] | fluorescence signal of S. aureus MW2-GFP at the abscess [7] | size of formed abscess ([8]; compared with infected group injected only with PBS, up to day 7) | reduction of the number of bacteria in abscess tissue ([8]; day 3) [%] | reduction of the number of bacteria in abscess tissue ([8]; day 7) [%] | binding to DNA (gel electrophoresis) (plasmid DNA (pRSETB)) |
| --- | --- | --- | --- | --- | --- | --- | --- | --- | --- | --- | --- | --- | --- | --- | --- | --- | --- | --- |
| CSCC[C@H](N)C(=O)N[C@@H](CCCNC(=N)N)C(=O)N[C@@H](CCCCN)C(=O)N[C@@H](CCC(=O)O)C(=O)N[C@@H](Cc1ccccc1)C(=O)N[C@@H](Cc1c[nH]cn1)C(=O)N[C@@H](CC(N)=O)C(=O)N[C@H](C(=O)N[C@@H](CC(C)C)C(=O)N[C@@H](CO)C(=O)N[C@@H](CO)C(=O)NCC(=O)N[C@@H](CCC(N)=O)C(=O)N[C@@H](CC(C)C)C(=O)N[C@@H](CC(C)C)C(=O)N[C@@H](C)C(=O)N[C@@H](CC(=O)O)C(=O)N[C@@H](CCCCN)C(=O)N[C@@H](CCCNC(=N)N)C(=O)N1CCC[C@H]1C(=O)N[C@@H](C)C(=O)N[C@@H](CCCNC(=N)N)C(=O)N[C@@H](CC(=O)O)C(=O)N[C@@H](Cc1ccc(O)cc1)C(=O)N[C@@H](CC(N)=O)C(=O)N[C@@H](CCCNC(=N)N)C(=O)N[C@@H](CCCCN)C(N)=O)C(C)C [PEP27] (H-MRKEFHNVLSSGQLLADKRPARDYNRK-NH2; N-terminus assumed) | up to 80 |  |  |  |  |  |  |  |  |  |  |  |  |  |  |  |  |  |
| CSCC[C@H](N)C(=O)N[C@@H](Cc1c[nH]c2ccccc12)C(=O)N[C@@H](CCCCN)C(=O)N[C@@H](Cc1c[nH]c2ccccc12)C(=O)N[C@@H](Cc1ccccc1)C(=O)N[C@@H](Cc1c[nH]cn1)C(=O)N[C@@H](CC(N)=O)C(=O)N[C@H](C(=O)N[C@@H](CC(C)C)C(=O)N[C@@H](CO)C(=O)N[C@@H](Cc1c[nH]c2ccccc12)C(=O)NCC(=O)N[C@@H](Cc1c[nH]c2ccccc12)C(=O)N[C@@H](CC(C)C)C(=O)N[C@@H](CC(C)C)C(=O)N[C@@H](C)C(=O)N[C@@H](CC(=O)O)C(=O)N[C@@H](CCCCN)C(=O)N[C@@H](CCCNC(=N)N)C(=O)N1CCC[C@H]1C(=O)N[C@@H](C)C(=O)N[C@@H](CCCNC(=N)N)C(=O)N[C@@H](CC(=O)O)C(=O)N[C@@H](Cc1ccc(O)cc1)C(=O)N[C@@H](CC(N)=O)C(=O)N[C@@H](CCCNC(=N)N)C(=O)N[C@@H](CCCCN)C(N)=O)C(C)C [PEP27-2] (H-MWKWFHNVLSWGWLLADKRPARDYNRK-NH2) | up to 80 | very little cell damage | suppressed | without destruction of the E. coli membrane | 21.84 | markedly reduced | 40 | ≤ 60 | 1.60×10^9 | 30 | ≤ 60 | 1.86×10^9 | 20 | substantially similar to that obtained after combination treatment | smaller than the experimental group in which only PBS was injected | 80.0 | 89.3 | higher binding ability to DNA |
